Results: article PMC12442595
These are yes or no findings as the source states them, for the method shown. Binding seen in cells or lysates may run through a third protein. Some entries that bind do so weakly or less than the wild type.

Amino acid sequences for entries named in this document (tags omitted).
UniProt P46937: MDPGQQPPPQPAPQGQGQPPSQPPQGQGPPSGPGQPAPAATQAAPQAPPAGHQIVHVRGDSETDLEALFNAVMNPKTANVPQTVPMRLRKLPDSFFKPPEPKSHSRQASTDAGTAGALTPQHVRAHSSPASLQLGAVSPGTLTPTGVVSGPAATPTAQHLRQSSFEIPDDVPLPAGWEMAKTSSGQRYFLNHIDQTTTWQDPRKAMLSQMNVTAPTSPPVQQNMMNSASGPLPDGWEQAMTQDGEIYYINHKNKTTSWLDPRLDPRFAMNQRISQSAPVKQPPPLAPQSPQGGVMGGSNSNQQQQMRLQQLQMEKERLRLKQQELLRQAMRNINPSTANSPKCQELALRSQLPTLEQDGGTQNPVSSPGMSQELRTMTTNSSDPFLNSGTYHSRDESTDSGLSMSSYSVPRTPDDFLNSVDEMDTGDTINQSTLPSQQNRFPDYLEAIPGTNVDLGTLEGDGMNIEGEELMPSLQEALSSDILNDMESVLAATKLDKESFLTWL

Biological target: FLAG-YAP (UniProt P46937)
Assay: co-IP; HEK293T (293T) cells co-transfected with FLAG-YAP and HA-ENH or ENH fragments; YAP precipitated with anti-FLAG antibody, ENH detected by blot

binding | Binder
binds | ENH LIMs fragment (418-596 amino acids) (domain or fragment, UniProt Q96HC4 418-596) PMCAHCNQVIRGPFLVALGKSWHPEEFNCAHCKNTMAYIGFVEEKGALYCELCYEKFFAPECGRCQRKILGEVISALKQTWHVSCFVCVACGKPIRNNVFHLEDGEPYCETDYYALFGTICHGCEFPIEAGDMFLEALGYTWHDTCFVCSVCCESLEGQTFFSKKDKPLCKKHAHSVNF
no binding | ENH PDZ fragment (1-85 amino acids) (domain or fragment, UniProt Q96HC4 1-85) MSNYSVSLVGPAPWGFRLQGGKDFNMPLTISSLKDGGKAAQANVRIGDVVLSIDGINAQGMTHLEAQNKIKGCTGSLNMTLQRAS
